Test results as given in US9962341B2, “Active pharmaceutical ingredient (API) comprising cannabinoids for use in the treatment of cancer” (GW Pharma Limited, priority 2014, dated 2018).

Assays:
Type in all cases: cell-based
SKOV3 = test: Cell viability (CellTiter-Blue, 72 h), SKOV3 ovarian cancer cells; conditions: 1% FBS
Experimental: (§1) The following cell lines were tested in this example: Lung Cancer (A549, NCI-H460); Pancreatic cancer (PANC1, Mia-Pa-Ca-2); Melanoma (WM115, A375); Ovarian cancer (OVCAR3, SKOV3); Gastric cancer (MKN45, HGC-27); Renal cancer (ACHN) and Bladder Cancer (RT112).
(§2) Each tumour cell line was maintained in vitro in RPMI 1640+10% heat inactivated FBS and 2 mM L-glutamine (growth media) at 37° C. in 5% CO2 and humidified conditions. The cells were harvested, washed, re-suspended into growth medium and counted. The cells were re-suspended into assay media (RPMI 1640+5% heat inactivated FBS+ and 2 mM L-glutamine) at 4×10^4 cells/ml (dependent upon cell type) and plated into the middle 240 wells of 384 well tissue culture plates (Corning CellBind, black-wall plates) 25 μl/well aliquots; 50 μl of growth media was aliquoted into the outer wells. There were 3 plates for each cell line.
(§3) The plates were incubated overnight at 37° C., in 5% humidified CO2.
(§4) The phytocannabinoid test compounds were prepared in 100% DMSO vehicle at a stock concentration of 20 and 40 mM.
(§5) Starting with the 20 mM stock in DMSO, this was serially diluted (2 fold) in DMSO in a 96-well plate, to 20 (no dilution), 10, 5, 2.5, 1.25, 0.625, 0.315, 0.157 and […]. Following this, 10 ul of each compound dilution was diluted into 990 ul of 1% (v/v) FBS media in a deep well block making the final concentrations of 200, 100, 50, 25, 12.5, 6.25, 3.125, 1.56 and 0.79 μM (2× final assay concentrations and 1% DMSO).
(§6) An equal volume of each cannabinoid in the combination (stock concentration 40 mM) was mixed together to make a stock of 20 mM of each cannabinoid in DMSO. This was serially diluted (2 fold) in DMSO in a 96-well plate, to 20 (no dilution), 10, 5, 2.5, 1.25, 0.625, 0.315, 0.157 and […]. Following this, 10 ul of each combination dilution was diluted into 990 ul of 1% (v/v) FBS media in a deep well block making the final concentrations of 200, 100, 50, 25, 12.5, 6.25, 3.125, 1.56 and 0.79 μM (2× final assay concentrations and 1% DMSO).
Cisplatin (stock of 1 mg/ml=3.33 mM in water) was diluted in 1% FBS media to give a stock concentration of 1 mM. This was then diluted in 1% FBS media from the stock solution to 200 μM, then serially diluted (3-fold) in 1% FBS media to 200 (no dilution), 66.66, 22.22, 7.41, 2.47, 0.82, 0.27, 0.09, 0.03 μM (2× final assay concentrations; no DMSO).
(§7) The plates were incubated for 72 h at 37° C. in 5% humidified CO2. To develop the plates, at 72 h, 10 μl of CellTiter-Blue™ reagent was added to each test/blank well.
(§8) The plates were incubated at 37° C., 5% humidified CO2. Fluorescence was measured using a Flex II Station plate reader (570 nm excitation wavelength, 600 nm emission wavelength, 590 nm cut-off) after 3 h.
(§9) The phytocannabinoid compounds CBD, CBGA, CBG, CBDA, THCV and THC were tested on a panel of lung (A549, NCI-H460), pancreatic (PANC1, Mia-Pa-Ca-2), melanoma (WM115, A375), ovarian (OVCAR3, SKOV3), gastric (MKN45, HGC-27), renal (ACHN) and bladder (RT112) cancer cell lines according to the protocol for 72 h in media containing 1% FBS.
(§10) The IC50 values for each phytocannabinoid and combination of CBD with the other phytocannabinoids was calculated for each cell line. The raw data values expressed in relative fluorescent units were normalised to the vehicle for each individual plate and any reduction in fluorescence indicated a decrease in viability.
(§11) This calculation was as described in Example 1 above.

A549 = test: Cell viability (CellTiter-Blue, 72 h), A549 lung cancer cells; conditions: A549, 1% FBS
Experimental: as §1, §2, §3, §4, §5, §6
(§12) Taxotere SOC was prepared in 100% DMSO to give a stock concentration of 10 mM. This was diluted in DMSO from the stock solution to 200 μM, then serially diluted (3-fold) in DMSO to 200 (no dilution), 66.66, 22.22, 7.41, 2.47, 0.82, 0.27, 0.09, 0.03 μM. 10 ul of each of the taxotere dilutions was diluted in 990 ul of 1% (v/v) FBS media making the final concentrations of 2, 0.67, 0.22, 0.074, 0.0247, 0.0082, 0.0027 0.0009, 0.0003 μM (2× final assay concentrations and 1% DMSO).
as §7, §8, §9, §10, §11

NCI-H460 = test: Cell viability (CellTiter-Blue, 72 h), NCI-H460 lung cancer cells; conditions: NCI-H460, 1% FBS
Experimental: as §1, §2, §3, §4, §5, §6, §12, §7, §8, §9, §10, §11

SMILES | m (shape parameter of the curve) (SKOV3) | m (shape parameter of dose effect curve) (A549) | m (shape parameter of dose effect curve) (NCI-H460)
C=C(C)[C@@H]1CCC(C)=C[C@H]1c1c(O)cc(CCCCC)cc1O [CBD, Cannabidiol] | 6.45 | 5.17 | 6.24
C=C(C)[C@@H]1CCC(C)=C[C@H]1c1c(O)cc(CCCCC)c(C(=O)O)c1O [CBDA, Cannabidiolic acid] | 2.76 | 2.30 | 3.32
CCCCCc1cc(O)c(C/C=C(\C)CCC=C(C)C)c(O)c1 [CBG, Cannabigerol] | 8.30 | 10.40 | 13.62
CCCCCc1cc(O)c(C/C=C(\C)CCC=C(C)C)c(O)c1C(=O)O [CBGA, Cannabigerolic acid] | 4.58 | 4.27 | 2.68
CCCc1cc(O)c2c(c1)OC(C)(C)[C@@H]1CCC(C)=C[C@@H]21 [THCV, Tetrahydrocannabivarin] | 6.50 | 4.01 | 4.47
